Laboratory results taken from PMC4373815.
Changes are numbered by the printed parent chain. No constants are given. Whether binding was seen depends on the method and setting. Binding seen in cells or lysates may run through a third protein. Some results given as binding are weak or reduced against the parent protein; the word gives no strength. Tags and fused reporters may be left off the sequences shown. Each block holds one binder with its values, some of them ahead of it.

Assays:
[1] = molecular target: T1, Grx4.C172S-GFP (S. pombe) (UniProt O74790); assay: co-IP; total native protein extracts of S. pombe strains with tagged genes, immuno-precipitated with GFP-trap beads, blotted with anti-Myc or anti-GFP; cells treated or not with 0.25 mM DIP; for Grx4-Fep1 also in cells lacking Fra2
T1 sequence: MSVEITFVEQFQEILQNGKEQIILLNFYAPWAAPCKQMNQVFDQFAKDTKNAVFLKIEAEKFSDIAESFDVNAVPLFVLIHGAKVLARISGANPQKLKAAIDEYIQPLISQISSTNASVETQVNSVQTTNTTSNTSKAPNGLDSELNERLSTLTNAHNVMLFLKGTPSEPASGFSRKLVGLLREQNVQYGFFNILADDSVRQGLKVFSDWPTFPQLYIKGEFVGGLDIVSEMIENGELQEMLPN

[2] = molecular target: T2, Grx4-GFP (S. pombe) (UniProt O74790); assay: as above
T2 sequence: T1 sequence with S172C

binding [1]: binds | binding [2]: binds
B1: Fep1-Myc (protein, UniProt Q10134 1-564)
chain: MAAKPAPFGQSCSNCHKTTTSLWRRGPDNSLLCNACGLYQKHRKHARPVKSEDLKDISPLIQQVCKNGTCAGDGFCNGTGGSASCTGCPALNNRIRSLNASKSQSGRKSLSPNPSSVPSSTETKASPTPLESKPQIVSDTTTETSNGTSRRRSSHNQHEDSSPPHEPSVTFCQNCATTNTPLWRRDESGNPICNACGLYYKIHGVHRPVTMKKAIIKRRKRLVFNGNANESQHNLKRMSSGDSGSSVKQQSTRDGPFSKSFPNGNGHASGNSGEGLAEHGMNTGVLPPASTFPSYNSNFTGFLPSSFNPSPLMTLSRLAAGEPDNNGKVYYSYGPTQEQSILPLPENKHEGLPPYQNEYVPNGIRANQVVYPGQLVAVGNDSSKQLSESTTSNTDNNGVATANQSNPLGMKFHLPPILPVGESVCLPPRTSAKPRIAEGIASLLNPEEPPSNSDKQPSMSNGPKSEVSPSQSQQAPLIQSSTSPVSLQFPPEVQGSNVDKRNYALNVLSQLRSQHDLMIQELHNLNQHIQQIDEWLRSSDNENMASEHIKSSTPAVVASGALQT

binding [2]: binds
B2: Php4-Myc (protein, UniProt O14318 1-295)
chain: MESSKSPSEVEKSSSASPAPQKPMIRVSKQWVVPPRPKPGRKPALDALGRRKAPIKPRPGPTSALSVEEAKFRVREKQYQDTIGKLQKENNELLEQLEMLQAQLKNSTLDSPKEVEVNSEVVKPDSATTENENRYVNQYNYPVEPPCAKNAVYTEIPIELDPHAFLGDSAKRIRVDSDSKDAKSVPSENGRIRVSMSPQNEINFTPENPAVMEKIRKRGVCNSVEGCLYSGSPKSVKRVRESEETKVYAQLLIDLHKSSKSAPMLKAGPSIAFKLPTMEPNFNDVRPVTSISSSS
